One assay concerns the target T1, Myc-tagged BAG5 (human) (UniProt Q9UL15).
T1 sequence: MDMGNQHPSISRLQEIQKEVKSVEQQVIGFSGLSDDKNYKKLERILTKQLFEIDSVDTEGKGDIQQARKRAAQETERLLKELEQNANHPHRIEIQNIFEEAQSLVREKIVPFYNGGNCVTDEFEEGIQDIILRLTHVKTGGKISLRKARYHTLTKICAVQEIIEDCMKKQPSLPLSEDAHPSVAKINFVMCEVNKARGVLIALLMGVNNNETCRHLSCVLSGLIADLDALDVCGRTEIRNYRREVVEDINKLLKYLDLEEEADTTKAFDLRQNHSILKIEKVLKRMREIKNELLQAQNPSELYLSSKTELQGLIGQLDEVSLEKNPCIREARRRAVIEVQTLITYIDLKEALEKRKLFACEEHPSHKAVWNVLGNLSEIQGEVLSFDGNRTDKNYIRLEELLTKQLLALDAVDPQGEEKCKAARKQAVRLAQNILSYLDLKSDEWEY
Briefly: co-IP; HEK293 cells cotransfected with DJ-1-eGFP and BAG5-Myc; IP with anti-GFP polyclonal antibody or, conversely, anti-Myc antibody (#2272); IP buffer PBS with 1% Triton X-100; Western blot. In general terms: A western blot detects proteins with antibodies after separation by electrophoresis.

Another assay concerns the target GFP-tagged DJ-1 (human) (UniProt Q99497). Described as above.
For assay [1], the target named is endogenous DJ-1 (human (endogenous in HEK293)) (UniProt Q99497). Nature of the assay: co-IP; endogenous proteins of HEK293 cells, with or without rotenone; IP with DJ-1 antibody (#5933); blot with anti-DJ-1 (ab11251) and anti-BAG5 (ab56738).
For assay [2], the target named is T2, DJ-1-flag (human), Q99497.
T2 chain: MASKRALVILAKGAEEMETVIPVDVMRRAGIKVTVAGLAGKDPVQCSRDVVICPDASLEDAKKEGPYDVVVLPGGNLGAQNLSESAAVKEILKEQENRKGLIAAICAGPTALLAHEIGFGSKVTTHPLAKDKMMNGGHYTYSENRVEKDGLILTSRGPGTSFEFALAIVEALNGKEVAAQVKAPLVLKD
Nature of the assay: Western blot of dimer and monomer bands; mitochondria isolated from HEK293 cells stably expressing DJ-1-flag alone or with BAG5-Myc; levels of dimer and monomer by Western blot. Conditions: remark: other sources report otherwise.

These are yes or no findings as the source states them, for the method shown. For some of these results: In cells and extracts the contact can be indirect. Some results given as binding are weak or reduced against the parent protein; the word gives no strength. For some of these results: Sequences can lack the tags named with a protein.

With “GFP-tagged DJ-1 (from UniProt Q99497 1-189)”, the binding entry with Myc-tagged BAG5 (human) is given as “binds”.

B1: Myc-tagged BAG5 (protein, UniProt Q9UL15 1-447)
chain: MDMGNQHPSISRLQEIQKEVKSVEQQVIGFSGLSDDKNYKKLERILTKQLFEIDSVDTEGKGDIQQARKRAAQETERLLKELEQNANHPHRIEIQNIFEEAQSLVREKIVPFYNGGNCVTDEFEEGIQDIILRLTHVKTGGKISLRKARYHTLTKICAVQEIIEDCMKKQPSLPLSEDAHPSVAKINFVMCEVNKARGVLIALLMGVNNNETCRHLSCVLSGLIADLDALDVCGRTEIRNYRREVVEDINKLLKYLDLEEEADTTKAFDLRQNHSILKIEKVLKRMREIKNELLQAQNPSELYLSSKTELQGLIGQLDEVSLEKNPCIREARRRAVIEVQTLITYIDLKEALEKRKLFACEEHPSHKAVWNVLGNLSEIQGEVLSFDGNRTDKNYIRLEELLTKQLLALDAVDPQGEEKCKAARKQAVRLAQNILSYLDLKSDEWEY
B1: in the assay with GFP-tagged DJ-1 (human), the binding result was “binds”.

B2: endogenous BAG5 protein (protein, UniProt Q9UL15 1-447)
chain: MDMGNQHPSISRLQEIQKEVKSVEQQVIGFSGLSDDKNYKKLERILTKQLFEIDSVDTEGKGDIQQARKRAAQETERLLKELEQNANHPHRIEIQNIFEEAQSLVREKIVPFYNGGNCVTDEFEEGIQDIILRLTHVKTGGKISLRKARYHTLTKICAVQEIIEDCMKKQPSLPLSEDAHPSVAKINFVMCEVNKARGVLIALLMGVNNNETCRHLSCVLSGLIADLDALDVCGRTEIRNYRREVVEDINKLLKYLDLEEEADTTKAFDLRQNHSILKIEKVLKRMREIKNELLQAQNPSELYLSSKTELQGLIGQLDEVSLEKNPCIREARRRAVIEVQTLITYIDLKEALEKRKLFACEEHPSHKAVWNVLGNLSEIQGEVLSFDGNRTDKNYIRLEELLTKQLLALDAVDPQGEEKCKAARKQAVRLAQNILSYLDLKSDEWEY
In the case of B2, the binding entry in assay [1] was “binds”.

B3: DJ-1-flag, Q99497 1-189 (protein)
chain: MASKRALVILAKGAEEMETVIPVDVMRRAGIKVTVAGLAGKDPVQCSRDVVICPDASLEDAKKEGPYDVVVLPGGNLGAQNLSESAAVKEILKEQENRKGLIAAICAGPTALLAHEIGFGSKVTTHPLAKDKMMNGGHYTYSENRVEKDGLILTSRGPGTSFEFALAIVEALNGKEVAAQVKAPLVLKD
With B3, the binding result in assay [2] is “binds”.

(Values after article PMC5352890.)
